Results published in patent US20240199623A1 (ILDONG PHARMACEUTICAL CO., LTD., priority 2020, published 2024).
The match of structure and compound is tentative.

Amino acid sequences for entries named in this document (tags omitted). Residues count along the entry.
UniProt Q08493, whole entry: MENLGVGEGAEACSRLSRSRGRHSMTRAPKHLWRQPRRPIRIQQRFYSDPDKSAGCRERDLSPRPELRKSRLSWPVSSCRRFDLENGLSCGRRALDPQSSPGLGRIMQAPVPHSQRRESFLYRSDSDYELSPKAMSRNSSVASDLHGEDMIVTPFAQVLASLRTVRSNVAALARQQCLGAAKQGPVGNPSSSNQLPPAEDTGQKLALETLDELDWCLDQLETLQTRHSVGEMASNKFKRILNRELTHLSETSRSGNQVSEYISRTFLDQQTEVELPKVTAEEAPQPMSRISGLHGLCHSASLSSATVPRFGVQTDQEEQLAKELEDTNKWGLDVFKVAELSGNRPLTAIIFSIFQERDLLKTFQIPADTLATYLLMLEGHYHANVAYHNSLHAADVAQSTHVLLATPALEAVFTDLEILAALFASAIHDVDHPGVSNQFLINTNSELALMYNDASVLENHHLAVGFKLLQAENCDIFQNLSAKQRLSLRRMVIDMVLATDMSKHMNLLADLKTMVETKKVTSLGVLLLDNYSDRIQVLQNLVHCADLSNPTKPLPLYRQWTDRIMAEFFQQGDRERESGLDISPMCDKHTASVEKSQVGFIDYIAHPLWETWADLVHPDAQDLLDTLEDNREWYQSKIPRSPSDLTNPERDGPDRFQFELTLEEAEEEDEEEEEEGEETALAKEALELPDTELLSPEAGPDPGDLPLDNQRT
UniProt P13569, whole entry: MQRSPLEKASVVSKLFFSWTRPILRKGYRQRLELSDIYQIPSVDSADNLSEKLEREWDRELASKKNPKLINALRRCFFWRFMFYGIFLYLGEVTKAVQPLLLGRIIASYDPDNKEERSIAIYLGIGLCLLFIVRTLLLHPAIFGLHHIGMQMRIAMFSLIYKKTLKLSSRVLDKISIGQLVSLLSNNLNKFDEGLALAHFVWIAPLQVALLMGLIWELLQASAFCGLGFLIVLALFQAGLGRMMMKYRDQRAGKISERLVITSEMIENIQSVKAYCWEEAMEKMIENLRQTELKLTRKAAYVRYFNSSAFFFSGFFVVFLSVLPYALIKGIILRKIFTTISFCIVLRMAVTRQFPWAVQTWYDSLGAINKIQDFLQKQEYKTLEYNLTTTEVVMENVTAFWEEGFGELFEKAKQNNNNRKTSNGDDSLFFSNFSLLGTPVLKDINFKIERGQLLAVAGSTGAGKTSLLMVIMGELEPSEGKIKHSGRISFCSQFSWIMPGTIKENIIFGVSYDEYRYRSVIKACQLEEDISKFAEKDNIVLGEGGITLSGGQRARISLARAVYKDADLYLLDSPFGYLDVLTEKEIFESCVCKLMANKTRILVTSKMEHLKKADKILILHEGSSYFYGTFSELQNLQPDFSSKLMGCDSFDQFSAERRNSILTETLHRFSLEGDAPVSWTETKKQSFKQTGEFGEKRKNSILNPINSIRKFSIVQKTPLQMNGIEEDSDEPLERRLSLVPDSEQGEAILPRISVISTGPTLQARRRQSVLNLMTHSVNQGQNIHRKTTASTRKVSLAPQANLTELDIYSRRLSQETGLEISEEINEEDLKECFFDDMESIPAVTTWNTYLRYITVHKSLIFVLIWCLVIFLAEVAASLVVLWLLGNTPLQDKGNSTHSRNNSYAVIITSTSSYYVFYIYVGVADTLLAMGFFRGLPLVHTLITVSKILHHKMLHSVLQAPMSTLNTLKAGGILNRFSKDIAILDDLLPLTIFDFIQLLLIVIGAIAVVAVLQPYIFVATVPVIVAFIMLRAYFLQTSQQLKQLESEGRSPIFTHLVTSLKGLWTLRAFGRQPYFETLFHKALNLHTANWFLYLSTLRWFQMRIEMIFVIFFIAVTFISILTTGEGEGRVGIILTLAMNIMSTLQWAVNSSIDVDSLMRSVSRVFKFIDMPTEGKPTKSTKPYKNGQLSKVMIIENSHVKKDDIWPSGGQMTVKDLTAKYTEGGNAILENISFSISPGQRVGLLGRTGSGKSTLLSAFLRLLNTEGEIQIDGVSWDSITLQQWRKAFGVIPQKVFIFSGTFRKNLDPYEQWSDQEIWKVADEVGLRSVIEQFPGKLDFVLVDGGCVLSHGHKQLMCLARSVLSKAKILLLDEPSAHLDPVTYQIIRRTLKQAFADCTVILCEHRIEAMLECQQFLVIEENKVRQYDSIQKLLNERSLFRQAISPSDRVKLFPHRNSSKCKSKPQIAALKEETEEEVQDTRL
UniProt Q07343, whole entry: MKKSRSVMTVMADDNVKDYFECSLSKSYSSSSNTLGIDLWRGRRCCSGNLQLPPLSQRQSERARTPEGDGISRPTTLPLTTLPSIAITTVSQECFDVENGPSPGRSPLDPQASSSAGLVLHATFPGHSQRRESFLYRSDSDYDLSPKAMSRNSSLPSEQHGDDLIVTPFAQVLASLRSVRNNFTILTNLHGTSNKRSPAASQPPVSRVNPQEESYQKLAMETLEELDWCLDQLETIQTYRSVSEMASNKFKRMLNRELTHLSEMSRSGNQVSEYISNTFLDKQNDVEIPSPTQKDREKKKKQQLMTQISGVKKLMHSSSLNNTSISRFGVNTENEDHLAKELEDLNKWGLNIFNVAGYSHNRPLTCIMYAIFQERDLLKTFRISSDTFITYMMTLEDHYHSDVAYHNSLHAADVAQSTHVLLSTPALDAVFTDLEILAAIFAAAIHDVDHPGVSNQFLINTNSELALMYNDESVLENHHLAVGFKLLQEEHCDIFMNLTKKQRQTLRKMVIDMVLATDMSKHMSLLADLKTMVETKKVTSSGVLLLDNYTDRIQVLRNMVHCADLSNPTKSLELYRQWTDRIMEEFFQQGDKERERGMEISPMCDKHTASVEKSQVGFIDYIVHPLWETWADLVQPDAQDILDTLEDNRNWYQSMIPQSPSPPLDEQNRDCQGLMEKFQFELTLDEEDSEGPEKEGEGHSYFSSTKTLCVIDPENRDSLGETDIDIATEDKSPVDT
UniProt P27815, 1-647 isoform 4: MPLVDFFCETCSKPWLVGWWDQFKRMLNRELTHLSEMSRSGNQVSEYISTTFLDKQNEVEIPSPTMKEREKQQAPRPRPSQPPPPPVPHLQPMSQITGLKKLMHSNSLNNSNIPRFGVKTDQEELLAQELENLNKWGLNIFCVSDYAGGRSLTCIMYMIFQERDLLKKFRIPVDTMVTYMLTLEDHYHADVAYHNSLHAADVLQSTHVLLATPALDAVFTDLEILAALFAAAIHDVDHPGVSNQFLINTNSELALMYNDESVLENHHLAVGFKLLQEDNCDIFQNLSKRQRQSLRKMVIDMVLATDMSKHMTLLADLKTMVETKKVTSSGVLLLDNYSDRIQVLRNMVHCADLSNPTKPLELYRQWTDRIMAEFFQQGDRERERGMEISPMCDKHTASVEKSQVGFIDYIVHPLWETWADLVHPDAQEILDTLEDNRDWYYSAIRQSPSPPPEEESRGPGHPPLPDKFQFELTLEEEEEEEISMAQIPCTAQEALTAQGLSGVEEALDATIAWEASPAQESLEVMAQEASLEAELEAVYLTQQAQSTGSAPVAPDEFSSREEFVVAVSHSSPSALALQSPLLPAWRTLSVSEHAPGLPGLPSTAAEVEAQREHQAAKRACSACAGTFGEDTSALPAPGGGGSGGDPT
UniProt Q08499, 303-809 limits assumed: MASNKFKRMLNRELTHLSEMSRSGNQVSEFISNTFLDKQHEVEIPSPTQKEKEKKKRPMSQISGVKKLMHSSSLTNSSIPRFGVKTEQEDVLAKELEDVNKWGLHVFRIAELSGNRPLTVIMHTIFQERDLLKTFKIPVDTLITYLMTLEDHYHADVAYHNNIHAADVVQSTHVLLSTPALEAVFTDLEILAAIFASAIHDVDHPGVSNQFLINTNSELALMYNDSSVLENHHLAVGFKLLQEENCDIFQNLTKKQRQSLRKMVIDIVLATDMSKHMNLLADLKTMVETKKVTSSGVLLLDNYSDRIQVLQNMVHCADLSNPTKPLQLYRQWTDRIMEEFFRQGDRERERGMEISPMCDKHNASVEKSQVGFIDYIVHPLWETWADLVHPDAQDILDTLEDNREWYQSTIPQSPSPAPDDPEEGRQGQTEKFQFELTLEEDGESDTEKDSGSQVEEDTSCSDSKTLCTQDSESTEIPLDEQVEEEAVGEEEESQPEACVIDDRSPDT

Experiments:
[1] = target: Human recombinant PDE4C1 (Homo sapiens, UniProt Q08493); assay: Human phosphodiesterase 4 (PDE4) inhibition, PDE4C1; settings: 10 uM test compound
[2] = target: T1, human wild type-CFTR (Homo sapiens, UniProt P13569); assay: Short-circuit current measurement; assay type: cell-based; settings: read-out: Short-circuit current measurement (EC50) Concentration range; FRT cells expressing human wild type-CFTR; Forskolin 20 μM signal used as 100% activity
[3] = tested on: C57BL/6 female mice; assay: Scopolamine induced tear volume reduction model; assay type: in vivo, mouse; settings: scopolamine-injected mice, ophthalmic solution topically on both eyes 3 times a day, phenol red thread; average if evaluated twice
[4] = target: Human recombinant PDE4B 1 (Homo sapiens, UniProt Q07343); assay: Human phosphodiesterase 4 (PDE4) inhibition, PDE4B 1; settings: 10 uM test compound
[5] = Phosphate-buffered saline (PBS) solubility of compounds; assay type: physicochemical; settings: PBS pH 7.5, 0.5 mg/mL, vortexed 90 min, filtered, LC-MS/MS
Experimental: PBS solutions (pH 7.5) were prepared according to the following compositions and stored at 4° C. Test compounds were dissolved in PBS (pH 7.5) at 0.5 mg/mL and vortexed for 90 min. The PBS solution was sequentially filtered through a 0.45, 1.2, […] syringe filter. Concentration of test compounds were determined using LC-MS/MS with appropriate dilution of the samples.

[6] = target: T1, human wild type-CFTR; assay: Cell-based YFP assay; settings: read-out: Cell-based YFP Assay (EC50) Concentration Range; CHO-K1 cells expressing human wild type-CFTR and YFP-H148Q/I152L; forskolin 20 μM = 100% activity
[7] = target: Human recombinant PDE4A1A (Homo sapiens, UniProt P27815); assay: Human phosphodiesterase 4 (PDE4) inhibition, PDE4A1A; settings: 10 uM test compound
[8] = target: Human recombinant PDE4D2 (Homo sapiens, UniProt Q08499); assay: Human phosphodiesterase 4 (PDE4) inhibition, PDE4D2; settings: 10 uM test compound

COc1ccc(-c2ccnc3cc(C(=O)NC45CC(C(=O)N6CCOCC6)(C4)C5)nn23)cc1OC
% inhibition range at 10 uM PDE4C1 [1]: B ((B) refers to 50%≤inhibition<80%)
EC50 [2]: > 2000 nM
Ratio of tear volume (test compound to vehicle) [3]: 1.35
% inhibition range at 10 uM PDE4B1 [4]: A ((A) refers to ≥80% inhibition)
Solubility Range [5]: B ((B) refers to 100<B<10,000 ng/mL)
EC50 [6]: 200 to 2000 nM
% inhibition range at 10 uM PDE4A1A [7]: A ((A) refers to ≥80% inhibition)
% inhibition range at 10 uM PDE4D2 [8]: A ((A) refers to ≥80% inhibition)
